The target of assay [1] is T1, CARK3-YFP^C (Arabidopsis) (UniProt O80719).
T1 sequence: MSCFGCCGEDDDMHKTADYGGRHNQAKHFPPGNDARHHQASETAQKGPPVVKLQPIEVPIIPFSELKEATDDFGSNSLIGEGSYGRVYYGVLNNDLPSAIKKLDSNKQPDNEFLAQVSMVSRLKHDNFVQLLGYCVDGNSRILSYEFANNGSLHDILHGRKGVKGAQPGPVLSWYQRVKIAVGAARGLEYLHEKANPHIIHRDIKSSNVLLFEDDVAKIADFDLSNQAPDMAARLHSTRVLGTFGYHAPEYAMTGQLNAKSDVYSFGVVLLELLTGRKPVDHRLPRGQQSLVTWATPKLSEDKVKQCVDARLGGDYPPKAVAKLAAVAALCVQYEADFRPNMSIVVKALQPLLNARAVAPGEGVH
The experiment in a line: split reporter; BiFC; YFP^N/YFP^C combinations co-expressed in 4-week old tobacco leaves via Agrobacteria GV3101; YFP signal observed after 2 days by confocal microscopy.

Assay [2] concerns the target T2, GST-CARK3 (Arabidopsis) (UniProt O80719).
T2 sequence: T1 sequence
Put plainly: pull-down; 5 μg GST-CARK3 or GST bound to glutathione-agarose beads incubated with His-ADF4; 50 mM Tris-HCl pH 8.0, 200 mM NaCl, 10% glycerol, 0.1% Tween 20; room temperature, 30 min; immunoblot with GST and His antibodies; both purified. Background: In western blotting, separated proteins are transferred to a membrane and probed.

The target of assay [3] is T3, 14-3-3κ (Arabidopsis) (UniProt P48348).
T3 sequence: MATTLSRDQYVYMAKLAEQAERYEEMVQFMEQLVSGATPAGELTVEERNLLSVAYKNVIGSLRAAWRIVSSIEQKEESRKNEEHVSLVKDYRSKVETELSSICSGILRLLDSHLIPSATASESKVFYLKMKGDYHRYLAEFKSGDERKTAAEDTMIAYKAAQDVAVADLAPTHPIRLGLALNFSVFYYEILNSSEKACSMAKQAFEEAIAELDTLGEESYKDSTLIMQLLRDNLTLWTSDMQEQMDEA
Put plainly: split reporter; BiFC; YFP^N/YFP^C combinations co-expressed in 4-week old tobacco leaves via Agrobacteria GV3101; YFP signal observed after 2 days by confocal microscopy.

No constants are given. Whether binding was seen depends on the method and setting. For part of these data: In cells and extracts the contact can be indirect. Some results given as binding are weak or reduced against the parent protein; the word gives no strength. Sequences can lack the tags named with a protein.

B1: ADF4-YFP^N (protein, UniProt Q9ZSK3 1-139)
chain: MANAASGMAVHDDCKLRFLELKAKRTHRFIVYKIEEKQKQVIVEKVGEPILTYEDFAASLPADECRYAIYDFDFVTAENCQKSKIFFIAWCPDVAKVRSKMIYASSKDRFKRELDGIQVELQATDPTEMDLDVLKSRVN
For the molecule B1, the binding entry in assay [1] is “binds”.

B2: His-ADF4 (protein, UniProt Q9ZSK3 1-139)
chain: B1 chain
B2: the binding result in assay [2] is listed as “binds”.

B3: CARK3-YFP^C (enzyme, UniProt O80719 1-365)
chain: T1 sequence
Take B3: in assay [3], the binding result is reported as “no binding”.
